Source: the supplement of paper PMC6411743
± gives the standard deviation of the averaged measurements. The list shows a part of the results.

Amino acid sequences for entries named in this document (tags omitted). A change or cut given only in a name is not applied to a line headed by its entry.
UniProt P11717, whole entry: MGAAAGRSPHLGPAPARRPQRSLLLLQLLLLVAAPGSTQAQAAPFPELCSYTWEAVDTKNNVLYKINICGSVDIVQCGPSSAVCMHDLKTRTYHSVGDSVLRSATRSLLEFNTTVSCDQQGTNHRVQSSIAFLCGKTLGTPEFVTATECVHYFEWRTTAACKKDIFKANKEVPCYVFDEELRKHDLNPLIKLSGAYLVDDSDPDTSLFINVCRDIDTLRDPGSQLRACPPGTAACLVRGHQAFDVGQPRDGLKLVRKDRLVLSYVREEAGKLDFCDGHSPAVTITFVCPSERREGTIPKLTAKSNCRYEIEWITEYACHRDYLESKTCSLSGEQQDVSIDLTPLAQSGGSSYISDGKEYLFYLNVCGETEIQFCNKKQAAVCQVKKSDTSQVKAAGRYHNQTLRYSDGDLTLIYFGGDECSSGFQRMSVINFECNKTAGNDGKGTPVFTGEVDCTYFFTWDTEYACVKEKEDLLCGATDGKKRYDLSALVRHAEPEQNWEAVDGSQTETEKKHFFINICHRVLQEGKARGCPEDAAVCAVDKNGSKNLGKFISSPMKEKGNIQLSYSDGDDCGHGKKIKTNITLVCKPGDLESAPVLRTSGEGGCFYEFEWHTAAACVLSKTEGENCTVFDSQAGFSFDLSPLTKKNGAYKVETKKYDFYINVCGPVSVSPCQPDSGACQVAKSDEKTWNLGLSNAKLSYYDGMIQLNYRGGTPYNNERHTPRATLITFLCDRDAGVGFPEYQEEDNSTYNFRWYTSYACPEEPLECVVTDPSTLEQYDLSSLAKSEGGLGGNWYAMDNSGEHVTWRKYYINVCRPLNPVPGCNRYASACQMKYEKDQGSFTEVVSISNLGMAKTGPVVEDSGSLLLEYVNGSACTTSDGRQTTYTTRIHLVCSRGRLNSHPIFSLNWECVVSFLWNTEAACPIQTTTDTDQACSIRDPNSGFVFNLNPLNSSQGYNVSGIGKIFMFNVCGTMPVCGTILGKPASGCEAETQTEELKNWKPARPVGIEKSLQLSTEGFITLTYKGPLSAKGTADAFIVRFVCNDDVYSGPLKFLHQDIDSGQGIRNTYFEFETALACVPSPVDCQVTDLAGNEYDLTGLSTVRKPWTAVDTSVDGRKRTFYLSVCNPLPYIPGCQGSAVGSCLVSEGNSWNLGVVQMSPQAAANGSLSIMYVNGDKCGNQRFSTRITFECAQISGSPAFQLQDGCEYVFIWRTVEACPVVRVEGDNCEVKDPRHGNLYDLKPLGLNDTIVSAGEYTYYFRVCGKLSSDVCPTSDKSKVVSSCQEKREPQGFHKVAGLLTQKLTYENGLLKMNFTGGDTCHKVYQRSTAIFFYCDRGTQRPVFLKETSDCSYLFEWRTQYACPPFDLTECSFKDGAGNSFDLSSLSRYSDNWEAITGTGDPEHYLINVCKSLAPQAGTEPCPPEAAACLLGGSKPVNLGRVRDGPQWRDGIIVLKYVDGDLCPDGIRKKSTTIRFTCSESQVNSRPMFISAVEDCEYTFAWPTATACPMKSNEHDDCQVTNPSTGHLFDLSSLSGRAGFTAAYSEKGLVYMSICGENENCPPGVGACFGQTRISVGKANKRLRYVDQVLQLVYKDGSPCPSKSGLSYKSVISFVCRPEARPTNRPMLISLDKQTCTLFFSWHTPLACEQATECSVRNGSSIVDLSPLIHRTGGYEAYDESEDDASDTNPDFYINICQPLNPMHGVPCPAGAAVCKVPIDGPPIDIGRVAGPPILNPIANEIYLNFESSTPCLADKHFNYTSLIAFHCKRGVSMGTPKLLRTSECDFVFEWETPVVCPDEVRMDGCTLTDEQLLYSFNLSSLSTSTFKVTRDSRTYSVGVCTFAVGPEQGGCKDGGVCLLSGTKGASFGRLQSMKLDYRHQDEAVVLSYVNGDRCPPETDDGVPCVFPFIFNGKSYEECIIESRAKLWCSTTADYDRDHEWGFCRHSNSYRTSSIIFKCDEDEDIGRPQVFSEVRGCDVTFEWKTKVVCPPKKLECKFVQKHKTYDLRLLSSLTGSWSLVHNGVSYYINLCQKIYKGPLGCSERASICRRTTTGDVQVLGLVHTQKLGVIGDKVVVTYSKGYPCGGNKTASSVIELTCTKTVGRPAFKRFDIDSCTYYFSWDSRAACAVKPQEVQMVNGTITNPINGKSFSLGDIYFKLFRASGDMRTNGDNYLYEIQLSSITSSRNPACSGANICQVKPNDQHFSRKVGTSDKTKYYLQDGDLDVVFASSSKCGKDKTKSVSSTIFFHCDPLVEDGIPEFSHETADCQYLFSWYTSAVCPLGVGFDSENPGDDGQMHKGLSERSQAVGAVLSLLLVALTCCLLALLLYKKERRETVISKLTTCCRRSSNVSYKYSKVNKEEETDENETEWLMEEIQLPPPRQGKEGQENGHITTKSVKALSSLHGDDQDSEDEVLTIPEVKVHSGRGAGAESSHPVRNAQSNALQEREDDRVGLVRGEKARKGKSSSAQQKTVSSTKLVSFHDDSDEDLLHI
UniProt P13051, whole entry: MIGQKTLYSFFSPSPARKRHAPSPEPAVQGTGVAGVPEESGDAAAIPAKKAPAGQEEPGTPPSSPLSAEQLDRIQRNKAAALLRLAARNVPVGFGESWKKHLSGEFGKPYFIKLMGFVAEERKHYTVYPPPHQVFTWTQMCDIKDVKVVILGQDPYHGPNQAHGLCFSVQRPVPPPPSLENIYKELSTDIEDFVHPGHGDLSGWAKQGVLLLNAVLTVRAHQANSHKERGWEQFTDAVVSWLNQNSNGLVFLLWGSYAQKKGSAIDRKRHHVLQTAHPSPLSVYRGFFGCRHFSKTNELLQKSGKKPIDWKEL
UniProt P14866: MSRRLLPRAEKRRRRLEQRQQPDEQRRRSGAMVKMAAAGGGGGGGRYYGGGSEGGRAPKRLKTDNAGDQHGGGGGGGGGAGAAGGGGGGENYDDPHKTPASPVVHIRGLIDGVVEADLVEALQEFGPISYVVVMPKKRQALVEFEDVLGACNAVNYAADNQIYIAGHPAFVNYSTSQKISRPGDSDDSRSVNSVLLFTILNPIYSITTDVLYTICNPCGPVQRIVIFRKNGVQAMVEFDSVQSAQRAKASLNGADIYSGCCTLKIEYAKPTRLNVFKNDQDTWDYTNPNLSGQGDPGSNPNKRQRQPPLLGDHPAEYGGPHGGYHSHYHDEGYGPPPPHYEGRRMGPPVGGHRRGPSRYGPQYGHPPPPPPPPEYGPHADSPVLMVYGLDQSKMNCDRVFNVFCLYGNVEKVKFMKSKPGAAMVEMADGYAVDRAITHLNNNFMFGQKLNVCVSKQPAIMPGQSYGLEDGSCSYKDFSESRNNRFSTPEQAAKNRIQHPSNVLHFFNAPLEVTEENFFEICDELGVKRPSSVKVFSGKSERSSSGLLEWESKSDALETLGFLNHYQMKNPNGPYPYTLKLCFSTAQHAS
UniProt P23511, whole entry: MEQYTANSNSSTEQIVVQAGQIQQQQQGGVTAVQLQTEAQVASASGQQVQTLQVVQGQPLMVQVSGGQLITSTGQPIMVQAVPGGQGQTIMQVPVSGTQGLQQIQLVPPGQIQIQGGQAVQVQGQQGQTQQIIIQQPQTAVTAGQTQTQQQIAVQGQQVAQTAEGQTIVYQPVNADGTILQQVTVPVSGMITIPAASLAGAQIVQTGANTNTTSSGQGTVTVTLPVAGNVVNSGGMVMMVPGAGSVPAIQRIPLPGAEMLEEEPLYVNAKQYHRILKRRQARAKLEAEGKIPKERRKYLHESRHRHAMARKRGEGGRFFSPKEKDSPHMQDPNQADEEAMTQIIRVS
UniProt P08648, whole entry: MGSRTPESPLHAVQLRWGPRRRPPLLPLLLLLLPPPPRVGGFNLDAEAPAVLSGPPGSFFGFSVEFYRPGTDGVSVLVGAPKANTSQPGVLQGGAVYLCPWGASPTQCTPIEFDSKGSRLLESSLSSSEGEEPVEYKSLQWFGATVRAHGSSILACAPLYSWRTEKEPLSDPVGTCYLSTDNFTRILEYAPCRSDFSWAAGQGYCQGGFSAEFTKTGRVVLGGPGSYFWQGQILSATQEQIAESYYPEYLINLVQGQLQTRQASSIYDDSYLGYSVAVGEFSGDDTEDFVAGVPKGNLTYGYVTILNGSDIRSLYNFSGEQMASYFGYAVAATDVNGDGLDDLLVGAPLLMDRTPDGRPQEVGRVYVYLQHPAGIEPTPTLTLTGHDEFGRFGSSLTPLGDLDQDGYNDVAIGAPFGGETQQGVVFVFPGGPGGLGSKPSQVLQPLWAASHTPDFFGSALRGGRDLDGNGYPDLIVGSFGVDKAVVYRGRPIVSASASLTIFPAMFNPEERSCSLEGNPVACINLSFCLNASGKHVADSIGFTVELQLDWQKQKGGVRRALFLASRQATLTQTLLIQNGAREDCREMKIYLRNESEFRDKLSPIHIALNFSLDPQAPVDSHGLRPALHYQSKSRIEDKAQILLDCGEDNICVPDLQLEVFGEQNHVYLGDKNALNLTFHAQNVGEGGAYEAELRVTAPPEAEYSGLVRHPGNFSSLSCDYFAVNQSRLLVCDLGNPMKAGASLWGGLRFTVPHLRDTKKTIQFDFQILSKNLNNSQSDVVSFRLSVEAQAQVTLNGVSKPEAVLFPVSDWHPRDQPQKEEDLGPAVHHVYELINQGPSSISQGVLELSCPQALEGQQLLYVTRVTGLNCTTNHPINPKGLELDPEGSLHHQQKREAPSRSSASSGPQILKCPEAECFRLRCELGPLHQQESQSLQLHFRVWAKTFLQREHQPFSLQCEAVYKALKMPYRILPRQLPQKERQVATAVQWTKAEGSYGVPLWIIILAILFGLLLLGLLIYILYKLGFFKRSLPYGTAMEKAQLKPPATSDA

Compound: Nc1nc2c(ncn2[C@@H]2O[C@H](COP(=O)(O)OP(=O)(O)OP(=O)(O)O)[C@@H](O)[C@H]2O)c(=O)[nH]1 [guanosine triphosphate]
Test: NP40-soluble protein abundance relative to vehicle (solubility fold change) (ratio); higher = more soluble protein in presence of GTP
Procedure: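 Solubility proteome profiling in Jurkat crude lysate. Lysate was treated with Mg-GTP (0.1-10 mM) for 10 min at room temperature and 3 min at 37 °C, then solubilised with 0.8% NP40 and benzonase, followed by ultracentrifugation. Proteins were quantified by TMT10 LC-MS/MS; the value is the NP40-soluble abundance relative to the NP40-processed vehicle, from 3 independent experiments.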

Target | NP40-soluble protein abundance (concentration: 0.1mM) | NP40-soluble protein abundance (concentration: 0.5mM) | NP40-soluble protein abundance (concentration: 1mM) | NP40-soluble protein abundance (concentration: 2mM) | NP40-soluble protein abundance (concentration: 4mM) | NP40-soluble protein abundance (concentration: 6mM) | NP40-soluble protein abundance (concentration: 8mM) | NP40-soluble protein abundance (concentration: 10mM)
IGF2R (UniProt P11717) | 0.974 ± 0.043 | 0.978 ± 0.023 | 0.998 ± 0.034 | 0.99 ± 0.064 | 1.01 ± 0.059 | 1 ± 0.068 | 1.03 ± 0.071 | 1.02 ± 0.1
UniProt P13051 and related entries | 0.9724 ± 0.0086 | 0.946 ± 0.019 | 0.944 ± 0.073 | 0.91 ± 0.062 | 0.886 ± 0.075 | 0.892 ± 0.07 | 0.893 ± 0.036 | 0.863 ± 0.1
HNRNPL (UniProt P14866) | 1.03 ± 0.021 | 1.1 ± 0.061 | 1.12 ± 0.11 | 1.15 ± 0.12 | 1.19 ± 0.16 | 1.2 ± 0.16 | 1.27 ± 0.2 | 1.23 ± 0.18
UniProt P23511 and related entries | 1.05 ± 0.13 | 0.825 ± 0.081 | 0.928 ± 0.15 | 0.911 ± 0.14 | 0.882 ± 0.19 | 0.859 ± 0.13 | 0.898 ± 0.15 | 0.859 ± 0.12
ITGA5 (UniProt P08648) | 0.905 ± 0.069 | 0.881 ± 0.074 | 0.978 ± 0.096 | 0.957 ± 0.1 | 0.985 ± 0.085 | 0.96 ± 0.057 | 0.953 ± 0.077 | 1.02 ± 0.082
